Source: PubChem BioAssay AID504793 (Drosophila RNAi Screening Center, 2011)
Assay: 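Genes required for cells to halt at G2/M after double-strand DNA breaks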 (primary screen). Cells: Drosophila S2R+ cells. Reagent: long dsRNA against Drosophila genes, about 0.25 µg dsRNA per well. Timing: 4 days of dsRNA, then 4 hours of drug before read-out. Treatment: doxorubicin 0.5 µM for 4 hours to cause double-strand breaks, in cells also given a low, harmless dose of dsRNA against nbs to sensitise the assay. Measured: 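Per-well count of mitotic cells stained for phospho-histone H3 after doxorubicin exposure, used as mitotic index; counts are raw and not normalised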. Scale: mitotic cells: higher = more cells in mitosis, weaker G2 arrest. Hit rule: 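a call needs confirmation in secondary tests, with other dsRNAs and a check of mitotic timing without damage, not just a high primary count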. Calls: active = confirmed in follow-up tests; inactive = not confirmed.
The deposit covers about 23,000 reagents; this is a random part of those that have a named target and a result. In the full data, 62 (0.27%) were called active. 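Calls come from follow-up tests whose scores are not deposited, so confirmed genes may have low counts here; counts are not normalised per plate.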 Raw values vary from plate to plate and are shown uncorrected. A number with no mark means an inactive call. Reagents against one gene are numbered here.

What is on record for Kif3C (Kinesin family member 3C) #1?
mitotic cells, replicate 1: 4

For Kif3C (Kinesin family member 3C) #2, what does the deposit list?
mitotic cells, replicate 1: 18

Which result is listed for Fhos (Formin homology 2 domain containing) #1?
mitotic cells, replicate 1: 4

For Fhos (Formin homology 2 domain containing) #2, what was measured?
mitotic cells, replicate 1: 10

Which result is listed for Fhos (Formin homology 2 domain containing) #3?
mitotic cells, replicate 1: 4

For Fhos (Formin homology 2 domain containing) #4, what does the deposit list?
mitotic cells, replicate 1: 4

What did the screen give for Fhos (Formin homology 2 domain containing) #5?
mitotic cells, replicate 1: 7

Just “mitotic cells, replicate 1” (2 entries from above):
Fhos (Formin homology 2 domain containing) #4	4
Fhos (Formin homology 2 domain containing) #5	7

The listing continues:
Which result is listed for CG12910?
mitotic cells, replicate 1: 3

With CG31823, what does the deposit list?
mitotic cells, replicate 1: 8

Which result is listed for CG14689 #1?
mitotic cells, replicate 1: 4

Which result is listed for CG14689 #2?
mitotic cells, replicate 1: 6

What did the screen give for Cpr5C (Cuticular protein 5C)?
mitotic cells, replicate 1: 11; mitotic cells, replicate 2: 13

With ssx #1, what was measured?
mitotic cells, replicate 1: 3

With ssx #2, what does the deposit list?
mitotic cells, replicate 1: 5
